# Measurements published in the supplement of paper PMC8728848.
# Some of the results follow.
# Columns and labels:
# Assay in all cases: glycan array binding signal (z-score within array); higher = stronger binding
# Conditions in all cases: glycan notation: IUPAC condensed, linker removed
# [1] = target: Fuc(a1-2)Gal
# Outline: (§1)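 The Consortium for Functional Glycomics database supplied 3228 glycan arrays, of which those lacking an available protein sequence were dropped. The binding signal, a within-array Z-score, was averaged across arrays of the same protein sequence and across linkers. Negative scores can be read as non-binding.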
# [2] = target: Fuc(a1-2)Gal(b1-3)GalNAc
# Outline: as §1
# [3] = target: Fuc(a1-2)Gal(b1-3)GalNAc(a1-3)[Fuc(a1-2)]Gal(b1-4)Glc
# Outline: as §1
# [4] = target: Fuc(a1-2)Gal(b1-3)GalNAc(a1-3)[Fuc(a1-2)]Gal(b1-4)GlcNAc
# Outline: as §1
# [5] = target: Fuc(a1-2)Gal(b1-3)GalNAc(b1-3)Gal
# Outline: as §1
# [6] = target: Fuc(a1-2)Gal(b1-3)GalNAc(b1-3)Gal(a1-4)Gal(b1-4)Glc
# Outline: as §1
# [7] = target: Fuc(a1-2)Gal(b1-3)GalNAc(b1-4)[Neu5Ac(a2-3)]Gal(b1-4)Glc
# Outline: as §1
# [8] = target: Fuc(a1-2)Gal(b1-3)GlcNAc
# Outline: as §1
# [9] = target: Fuc(a1-2)Gal(b1-3)GlcNAc(b1-2)Man(a1-3)[Fuc(a1-2)Gal(b1-3)GlcNAc(b1-2)Man(a1-6)]Man(b1-4)GlcNAc(b1-4)GlcNAc
# Outline: as §1
# [10] = target: Fuc(a1-2)Gal(b1-3)GlcNAc(b1-2)Man(a1-3)[Fuc(a1-2)Gal(b1-3)GlcNAc(b1-2)Man(a1-6)]Man(b1-4)GlcNAc(b1-4)[Fuc(a1-6)]GlcNAc
# Outline: as §1
# [11] = target: Fuc(a1-2)Gal(b1-3)GlcNAc(b1-3)Gal(b1-4)Glc
# Outline: as §1
# [12] = target: Fuc(a1-2)Gal(b1-3)GlcNAc(b1-3)GalNAc
# Outline: as §1
# [13] = target: Fuc(a1-2)Gal(b1-3)GlcNAc(b1-3)[Fuc(a1-2)Gal(b1-3)GlcNAc(b1-6)]GalNAc
# Outline: as §1
# [14] = target: Fuc(a1-2)Gal(b1-3)GlcNAc(b1-3)[Gal(b1-4)GlcNAc(b1-6)]Gal(b1-4)Glc
# Outline: as §1
# [15] = target: Fuc(a1-2)Gal(b1-3)GlcNAc(b1-3)[Neu5Ac(a2-6)Gal(b1-4)GlcNAc(b1-6)]Gal(b1-4)Glc
# Outline: as §1
# [16] = target: Fuc(a1-2)Gal(b1-3)GlcNAc6S
# Outline: as §1
# [17] = target: Fuc(a1-2)Gal(b1-3)[Fuc(a1-4)]GlcNAc
# Outline: as §1
# [18] = target: Fuc(a1-2)Gal(b1-3)[Fuc(a1-4)]GlcNAc(b1-2)Man(a1-3)[Fuc(a1-2)Gal(b1-3)[Fuc(a1-4)]GlcNAc(b1-2)Man(a1-3)]Man(b1-4)GlcNAc(b1-4)GlcNAc
# Outline: as §1
# [19] = target: Fuc(a1-2)Gal(b1-3)[Fuc(a1-4)]GlcNAc(b1-2)Man(a1-3)[Fuc(a1-2)Gal(b1-3)[Fuc(a1-4)]GlcNAc(b1-2)Man(a1-6)]Man(b1-4)GlcNAc(b1-4)[Fuc(a1-6)]GlcNAc(b1-4)[Fuc(a1-6)]GlcNAc
# Outline: as §1
# [20] = target: Fuc(a1-2)Gal(b1-3)[Fuc(a1-4)]GlcNAc(b1-3)[Fuc(a1-3)[Gal(b1-4)]GlcNAc(b1-6)]Gal(b1-4)Glc
# Outline: as §1
# [21] = target: Fuc(a1-2)Gal(b1-3)[Fuc(a1-4)]GlcNAc(b1-3)[Gal(b1-4)GlcNAc(b1-6)]Gal(b1-4)Glc
# Outline: as §1
# [22] = target: Fuc(a1-2)Gal(b1-4)Fuc(a1-3)]GlcNAc(b1-2)Man(a1-3)[Fuc(a1-2)Gal(b1-4)[Fuc(a1-3)]GlcNAc(b1-2)Man(a1-6)]Man(b1-4)GlcNAc(b1-4)GlcNAc
# Outline: as §1
# [23] = target: Fuc(a1-2)Gal(b1-4)Glc
# Outline: as §1
# [24] = target: Fuc(a1-2)Gal(b1-4)Glc6S
# Outline: as §1
# [25] = target: Fuc(a1-2)Gal(b1-4)GlcNAc
# Outline: as §1
# [26] = target: Fuc(a1-2)Gal(b1-4)GlcNAc(b1-2)Man
# Outline: as §1
# [27] = target: Fuc(a1-2)Gal(b1-4)GlcNAc(b1-2)Man(a1-3)[Fuc(a1-2)Gal(b1-4)GlcNAc(b1-2)Man(a1-6)]Man(b1-4)GlcNAc(b1-4)GlcNAc
# Outline: as §1
# [28] = target: Fuc(a1-2)Gal(b1-4)GlcNAc(b1-2)Man(a1-3)[Fuc(a1-2)Gal(b1-4)GlcNAc(b1-2)Man(a1-6)]Man(b1-4)GlcNAc(b1-4)[Fuc(a1-6)]GlcNAc
# Outline: as §1
# [29] = target: Fuc(a1-2)Gal(b1-4)GlcNAc(b1-2)[Fuc(a1-2)Gal(b1-4)GlcNAc(b1-4)]Man(a1-3)[Fuc(a1-2)Gal(b1-4)GlcNAc(b1-2)Man(a1-6)]Man(b1-4)GlcNAc(b1-4)GlcNAc
# Outline: as §1
# [30] = target: Fuc(a1-2)Gal(b1-4)GlcNAc(b1-3)Gal(b1-4)GlcNAc
# Outline: as §1
binder,measurement,setting,value
LlpA (Arthrobacter sp) (protein) MGSSHHHHHHSSGLVPRGSHMTLHPETALRPGAAATSPNSRYRLLYQTDGNLVLYGPDGPLWDSGTNGHGAGACIMQADGNLVLYGPNDEYVWDTETDNNPGSRLVIQDDGNAVIYRPDGSPLWATETCQPPGSADSHVLQSGSTLTPTHGIRSANGLYGLLYQTDGNLVFYGPDGPLWDSGTNGRGAGACIMQPDGNLVLYGPHDEYVWDTETDNNPGSRLVIQDDGNAVIYRPDGNPTWVTGTH,glycan array binding signal (z-score),[1],0.958
same,glycan array binding signal (z-score),[2],-0.371
same,glycan array binding signal (z-score),[3],-0.605
same,glycan array binding signal (z-score),[4],0.009
same,glycan array binding signal (z-score),[5],1.33
same,glycan array binding signal (z-score),[6],-0.47
same,glycan array binding signal (z-score),[7],0.077
same,glycan array binding signal (z-score),[8],-0.163
same,glycan array binding signal (z-score),[9],-0.3
same,glycan array binding signal (z-score),[10],0.139
same,glycan array binding signal (z-score),[11],-0.863
same,glycan array binding signal (z-score),[12],-1.18
same,glycan array binding signal (z-score),[13],-0.781
same,glycan array binding signal (z-score),[14],0.971
same,glycan array binding signal (z-score),[15],-0.973
same,glycan array binding signal (z-score),[16],-0.629
same,glycan array binding signal (z-score),[17],-0.228
same,glycan array binding signal (z-score),[18],0.977
same,glycan array binding signal (z-score),[19],-0.025
same,glycan array binding signal (z-score),[20],-0.77
same,glycan array binding signal (z-score),[21],-1.04
same,glycan array binding signal (z-score),[22],1.72
same,glycan array binding signal (z-score),[23],0.721
same,glycan array binding signal (z-score),[24],0.269
same,glycan array binding signal (z-score),[25],0.418
same,glycan array binding signal (z-score),[26],-0.637
same,glycan array binding signal (z-score),[27],1.58
same,glycan array binding signal (z-score),[28],0.626
same,glycan array binding signal (z-score),[29],0.125
same,glycan array binding signal (z-score),[30],-0.847

# Two entries from above, tab-delimited:
binder	measurement	setting	value
LlpA (Arthrobacter sp) (protein) MGSSHHHHHHSSGLVPRGSHMTLHPETALRPGAAATSPNSRYRLLYQTDGNLVLYGPDGPLWDSGTNGHGAGACIMQADGNLVLYGPNDEYVWDTETDNNPGSRLVIQDDGNAVIYRPDGSPLWATETCQPPGSADSHVLQSGSTLTPTHGIRSANGLYGLLYQTDGNLVFYGPDGPLWDSGTNGRGAGACIMQPDGNLVLYGPHDEYVWDTETDNNPGSRLVIQDDGNAVIYRPDGNPTWVTGTH	glycan array binding signal (z-score)	[11]	-0.863
same	glycan array binding signal (z-score)	[12]	-1.18
